Some of these results come from one statement about several compounds together.
Test system: HIV IIIB virus
Test: Multiple round infectivity assay in H9 cells (RT activity, day 11)
Type: cell-based, HIV-1
Conditions: 0.01 μg/ml glycopeptide (approximately 5 nM), 5 or 10% human serum
Description: An infectivity assay was performed on H9 cells that were infected with HIV IIIB virus. All peptides were run at four different dilutions and each dilution was run in quadruplicates together with a 10% or 5% of pooled AB human serum from healthy individuals. (Cambrex, USA).
H9 cells were infected with 100 TCID50 of the HIV IIIB virus and incubated for 1.5 h at 37° C. after which they were centrifuged, the supernatant was discarded and the cells were re-suspended in RPMI medium for a final concentration of 200,000 cells/ml.
One 48 well plate was run per glycopeptide, containing the four dilutions of the glycopeptide and the four replicates of each one of them, plus a positive control of infected cells (with and without human serum) and a negative control of non-infected H9 cells. Each well contained 500 μl of the infected cells +500 μl of the diluted peptide and the chosen dilution of the human serum.
Plates were incubated at 37° C.+5% CO2 until day 7 when 500 μl of supernatant were collected from each well and stored at −20 degrees until further analysis. An additional 500 μl of fresh RPMI medium with the appropriate dilution of the peptide plus the human serum were added to the wells and incubated at 37 degrees until day 11 when the supernatant was measured for Reverse Transcriptase (RT) activity (Cavidi, Sweden) according to the manufacturer's protocol.

KILGNQGSFLTKGPS (N-terminal Gal-α1-3Gal-β glyco-aspartic acid; Homo sapien) [Seq. Id. No. 6, CD4 receptor peptide with Gal-α1-3Gal-β glyco-aspartic acid linked to its N-terminal end]
decrease in the infectivity: more than 50%
